# Measured values: PubChem BioAssay AID540276 (National Center for Advancing Translational Sciences (NCATS), 2011)
# Among all 300,000 compounds or so, about 5,400 (1.8%) were called active. The shares of active, inactive and inconclusive entries below differ from those in the screen. The call rests on the fitted dose curve; tested in HEK293 cells. Potencies beside an inconclusive call are fits to weak or partial responses and may not hold up.
# Test: qHTS for inhibitors of binding or entry into cells for Marburg Virus
# Conditions: Marburg virus pseudotyped entry inhibition, cell reporter; series mostly up to 37.8 µM
# Potency means the concentration at half of the fitted maximal effect.
row,SMILES,Potency
1,CCCCCOc1ccc(C(=O)NCC2(c3ccccc3)CCOCC2)cc1,inactive
2,Nc1ncnc2c1ncn2[C@@H]1O[C@H](CNC(=O)[C@@H](N)Cc2ccccc2)[C@@H](O)[C@H]1O,inactive
3,O=C(Cc1ccc(Cl)cc1)NC1CC1,inactive
4,CCCCn1c(N)c(N(CC)C(=O)c2cc(C)cc(C)c2)c(=O)[nH]c1=O,"inconclusive: 0.501 µM [activator, full curve, poor fit]"
5,COc1ccc(CNC(=O)C2CCCN2S(=O)(=O)c2ccc(Cl)cc2)cc1 (stereo unspecified),"inconclusive: 0.366 µM [inhibitor, partial curve, poor fit]"
6,CC(C)c1ccc(C(=O)NCCCN2CCN(CCCNC(=O)c3ccc(C(C)C)cc3)CC2)cc1,"inconclusive: 23.1 µM [inhibitor, single point]"
7,COc1cccc(NC(=O)CN2CCN(c3nc(-c4cccc(OC)c4)cs3)CC2)c1,"inconclusive: 35.5 µM [inhibitor, single point]"
8,O=C(Nc1ccc(O)cc1C(=O)O)c1cccc(Br)c1,"inconclusive: 3.98 µM [inhibitor, partial curve, poor fit]"
9,O=c1[nH]c2cccnc2c2ccsc12,inactive
10,Cc1ccc([N+](=O)[O-])c(OCCN2C(=O)NC(C)(C)C2=O)c1,inactive
11,COC(=O)CC1c2ccccc2C=C(C=Cc2ccc3c(c2)OCO3)N1C(=O)OC (stereo unspecified),inactive
12,COc1ccc2nc(C)cc(SCC(=O)N/N=C/c3cccc4ccccc34)c2c1,"inconclusive: 5.17 µM [inhibitor, partial curve, poor fit]"
13,COC(=O)c1ccc(C2/C(=C(\O)c3cccc(OC)c3)C(=O)C(=O)N2CCCN(C)C)cc1 (stereo unspecified),"inconclusive: 3.66 µM [inhibitor, partial curve, poor fit]"
14,CCOC(=O)c1c(NC(=O)CN2C(=O)NC3(CCC(CC)CC3)C2=O)sc(C)c1-c1ccc(C)cc1 (stereo unspecified),"inconclusive: 0.794 µM [inhibitor, partial curve, poor fit]"
15,CC1([N+](=O)[O-])COP(=O)(Nc2ccc(Cl)cc2)OC1 (stereo unspecified),inactive
16,Cc1ccc(-c2csc3ncnc(SCC(=O)NCc4ccc5c(c4)OCO5)c23)cc1,"inconclusive: 18.3 µM [inhibitor, single point]"
17,CCn1c(=O)c([N+](=O)[O-])c(N2CCN(Cc3ccc4c(c3)OCO4)CC2)c2ccccc21,"inconclusive: 35.5 µM [inhibitor, single point]"
18,O=C(NC1CCCCC1)NC1CCN(CC(=O)N2CCOCC2)CC1,inactive
19,O=C(Nc1ccccc1)OCCNC1CCCCC1,inactive
20,C=CCNC(=S)N/N=C/c1ccc(-c2ccc(Cl)cc2Cl)o1,"inconclusive: 14.1 µM [inhibitor, partial curve, poor fit]"
21,COC(=O)C1=C(C)N(CC2CC2)C(=O)N[C@H]1CCc1ccccc1,"inconclusive: 0.0133 µM [activator, full curve, poor fit]"
22,Cc1nnsc1NC(=O)OCc1ccc(C(C)(C)C)cc1,"inconclusive: 1 µM [inhibitor, full curve, poor fit]"

row,SMILES,Potency
1,O=C(Nc1nc(-c2cccnc2)cs1)c1ccc([N+](=O)[O-])cc1,inactive
2,CNC(=S)NNC(=O)c1sccc1OCc1cccc(C(F)(F)F)c1,inactive
3,Cc1ccc(SCCC(=O)NC(C)C)cc1,"inconclusive: 14.6 µM [activator, partial curve, poor fit]"
4,COc1ccc(-c2nnc(SCc3nnc(-c4ccccc4)o3)n2-c2ccccc2)cc1,inactive
5,COc1cccc(C(=O)c2ncc(C(F)(F)F)cc2Cl)c1,inactive
6,Cc1ccccc1CC1(CO)CCCN(Cc2ccc(C#CC(C)(C)O)cc2)C1 (stereo unspecified),"inconclusive: 10 µM [inhibitor, partial curve, poor fit]"
7,CC(C)(C)NC(=O)CN(C(=O)c1snc(C(=O)NC2CCCCC2)c1N)c1ccc(F)cc1,"inconclusive: 5.62 µM [inhibitor, single point]"
8,CC(=O)OC1CCC2C3CCC4=C(CC(F)C(=O)C4)C3CCC12C (stereo unspecified),inactive
9,Cc1ccc(-c2csc3ncn(-n4c(C)ccc4C)c(=O)c23)o1,inactive
10,CCOCC(=O)Nc1ccc(Br)c(C)c1,"inconclusive: 1.41 µM [activator, partial curve, poor fit]"
11,CC1CN(C2CCN(S(=O)(=O)c3ccccc3)CC2)CC(C)O1 (stereo unspecified),"inconclusive: 0.461 µM [activator, single point]"
12,CN(Cc1ccc(F)cc1)C(=O)C(c1ccccc1)c1ccccc1,"inconclusive: 11.2 µM [inhibitor, single point]"
13,CC(C)(C)c1ccc(C(=O)NCC(=O)OCC(=O)Nc2nc(-c3ccc(F)cc3)cs2)cc1,"inconclusive: 5.62 µM [activator, single point]"
14,Cc1ccc(-n2ncc(C(=O)NC3CC3)c2C2CCN(C(=O)OC(C)(C)C)CC2)c(C)c1,"inconclusive: 22.4 µM [inhibitor, single point]"
15,CCCN(CCC)CC(O)Cn1cc(/C=C/C(=O)c2ccc(C)cc2)c2ccccc21 (stereo unspecified),"inconclusive: 11.2 µM [inhibitor, partial curve, poor fit]"
16,Clc1ccc(-c2nnc(-c3ccccc3)c(-c3ccccc3)n2)cc1,"inconclusive: 28.2 µM [inhibitor, single point]"
17,COc1ccc(S(=O)(=O)n2ccc(-c3ccc4c(c3)CCC(C)(C)O4)n2)cc1,"inconclusive: 6.31 µM [inhibitor, single point]"
18,Cc1ccccc1Cn1c(=N)n(CC(O)c2ccco2)c2ccccc21 (stereo unspecified),"inconclusive: 14.1 µM [inhibitor, partial curve, poor fit]"
19,CC(C)(C)c1cc(C(=O)N/N=C/c2ccc(F)cc2)n(-c2ccccc2)n1,"inconclusive: 16.4 µM [inhibitor, single point]"
20,Cc1cccc(NC(=O)c2cc(=O)c3ccccc3o2)c1,"inconclusive: 1 µM [inhibitor, partial curve, poor fit]"
21,COc1ccc(CNC(=O)c2sccc2C)cc1,inactive
22,Cc1cccc(/C=N/NC(=O)Cn2nccc2C)n1,"inconclusive: 3.16 µM [inhibitor, single point]"

row,SMILES,Potency
1,O=C(NC(=S)Nc1ccc(Br)cn1)c1cncc(Br)c1,inactive
2,CCOc1ccc2oc(C(=O)OCC(=O)NCC3CCCO3)c(C)c2c1 (stereo unspecified),inactive
3,CC(C)CC(C(=O)NCC1CCCO1)N(C(=O)Cn1nnc(-c2ccc(F)cc2)n1)c1ccccc1F (stereo unspecified),"inconclusive: 36.6 µM [inhibitor, single point]"
4,O=C(NCCN1CCC(Cc2ccccc2)CC1)C1CCN(S(=O)(=O)N2CCC3(CC2)OCCO3)CC1,"inconclusive: 1.3 µM [inhibitor, partial curve, poor fit]"
5,O=C(NCCCc1ccccc1)c1ccccc1O,inactive
6,COc1cccc(NC(=O)COC(=O)c2cccnc2)c1,"inconclusive: 20.6 µM [activator, partial curve, poor fit]"
7,CC(C)c1ccc(-n2c(O)c(/C=N/NC(=O)c3ccncc3)c(=O)[nH]c2=O)cc1,inactive
8,Cn1c2c(c(=O)n(C)c1=O)CN(Cc1ccc3c(c1)OCO3)CN2,"inconclusive: 0.891 µM [inhibitor, partial curve, poor fit]"
9,CCOc1ccc(NC(=O)C2CCCN(c3ccc(Sc4ccc(C)cc4)nn3)C2)cc1 (stereo unspecified),"inconclusive: 0.562 µM [inhibitor, full curve, poor fit]"
10,CCOc1cc(/C=C/C(=O)c2ccc(OC)c(CN3CCOCC3)c2)cc(Br)c1O,"inconclusive: 35.5 µM [inhibitor, partial curve, poor fit]"
11,O=C1COc2ccc(C(=O)c3ccccc3C(=O)O)cc2N1,"inconclusive: 5.62 µM [activator, single point]"
12,CCC(Oc1ccccc1F)C(=O)N1CCC(c2nc3ccccc3s2)CC1 (stereo unspecified),"inconclusive: 5.01 µM [inhibitor, single point]"
13,CSc1nc(-c2ccco2)nn1C(=O)c1ccco1,inactive
14,Cc1ccccc1NC(=S)N(CCc1c(C)[nH]c2ccc(F)cc12)Cc1cccnc1,"inconclusive: 20.6 µM [inhibitor, single point]"
15,CCCCCn1c(=O)[nH]c2cc(C(=O)NCCCN3CCCCC3)ccc2c1=O,"inconclusive: 0.291 µM [inhibitor, partial curve, poor fit]"
16,Cc1ccc(NC(=O)c2cc(N3C(=O)C=CC3=O)ccc2Cl)cc1C,"inconclusive: 4.47 µM [inhibitor, full curve, poor fit]"
17,O=C(CSc1nc2ccccc2c(=O)n1-c1ccc(F)cc1F)Nc1ccc(N2CCOCC2)cc1,"inconclusive: 0.282 µM [inhibitor, full curve, poor fit]"
18,CCc1nc(N[C@@H](Cc2c[nH]c3ccccc23)C(=O)O)c2oc3ccccc3c2n1,"inconclusive: 0.891 µM [activator, single point]"
19,Cc1ccccc1C(=O)NC1(C(F)(F)F)N=C(c2ccccc2)N(C2CCCCC2)C1=O (stereo unspecified),"inconclusive: 7.08 µM [inhibitor, full curve, poor fit]"
20,CCCC(=O)N1CCN(c2ccc(NC(=O)c3cccs3)cc2Cl)CC1,"inconclusive: 6.31 µM [activator, single point]"
21,CCS(=O)(=O)N1N=C(c2cccc(NS(C)(=O)=O)c2)CC1c1ccccc1 (stereo unspecified),"inconclusive: 14.1 µM [inhibitor, single point]"
22,CC1CCN(CCc2nc3cc(NS(=O)(=O)c4ccccc4)ccc3n2C)CC1,"inconclusive: 0.651 µM [activator, full curve, poor fit]"

# Copied from the list:
# In Potency, CC(C)CC(C(=O)NCC1CCCO1)N(C(=O)Cn1nnc(-c2ccc(F)cc2)n1)c1ccccc1F (stereo unspecified) is listed with inconclusive: 36.6 µM [inhibitor, single point]
# In Potency, CCCC(=O)N1CCN(c2ccc(NC(=O)c3cccs3)cc2Cl)CC1 is listed with inconclusive: 6.31 µM [activator, single point]
# In Potency, O=C(NCCCc1ccccc1)c1ccccc1O is listed with inactive
# In Potency, CCOc1cc(/C=C/C(=O)c2ccc(OC)c(CN3CCOCC3)c2)cc(Br)c1O is listed with inconclusive: 35.5 µM [inhibitor, partial curve, poor fit]
# In Potency, O=C1COc2ccc(C(=O)c3ccccc3C(=O)O)cc2N1 is listed with inconclusive: 5.62 µM [activator, single point]
